Measurements: PubChem BioAssay AID651640 (Broad Institute, 2012)
In all, about 350,000 compounds went through this assay and about 6,000 (1.7%) were called active. The inconclusive results got no clear call from the source; some entries with a clear call stand among them for comparison. No stated cut-off is given here; in the data, active means CPE inhibition above about 20% (passing the limit was not always enough); inconclusive means no clear call, values can overlap the other calls; tested in BHK-21 cells.

Experiment: protection of cells from dengue 2 killing – plate reader, single concentration, primary screen (AID 651640);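 further: 0% = median of neutral control wells and 100% = median of positive control wells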
Conditions: DENV2-infected cells, cytopathic effect rescue, at 9.99 µM, active compounds read high
With `FC(F)(F)c1ccccc1NC(=S)NC1CCN(Cc2ccccc2)CC1` the CPE inhibition was inconclusive: 28%. With `N#Cc1c(SCC(=O)Nc2nc3ccccc3s2)sc2c(O)cc(=O)[nH]c12` the CPE inhibition was inactive: 6.98%. For `COc1ccc([N+](=O)[O-])cc1NCC(=O)Nc1cccc(S(=O)(=O)N2CCCC2)c1`, the CPE inhibition was inconclusive: 46.8%. For `C[C@@H]1CCCCO[C@H](CN(C)C(=O)Nc2ccc(C(F)(F)F)cc2)[C@H](C)CN([C@H](C)CO)C(=O)c2cc(NS(=O)(=O)c3ccccc3)ccc2O1`, the CPE inhibition was active: 77.3%. With `Cc1ccccc1C[n+]1cccc2ccccc21` the CPE inhibition was active: 30.6%. For `Cc1ccc(Cl)c(OC(=O)Cn2cnc3c2c(=O)n(C)c(=O)n3C)c1`, the CPE inhibition was inconclusive: 33.9%. In the case of `C[C@H]1CN([C@@H](C)CO)C(=O)CCCn2cc(nn2)CO[C@H]1CN(C)Cc1ccc(C(=O)O)cc1`, the CPE inhibition was active: 25.2%. For `O=C(c1cc(C2CC2)on1)N1CCN(C(c2ccccc2)c2ccccc2)CC1`, the CPE inhibition was active: 40%. With `Cc1noc(C)c1NC(=O)N(C)C[C@H]1Oc2ccc(NC(=O)Nc3ccc4c(c3)OCO4)cc2C(=O)N([C@H](C)CO)C[C@H]1C` the CPE inhibition was inconclusive: 31.6%. For `COCC#Cc1cnc2c(c1)C(=O)N([C@@H](C)CO)C[C@@H](C)[C@H](CN(C)C(=O)C1CCOCC1)O2`, the CPE inhibition was inactive: 4.93%. With `C[C@@H]1CCCCO[C@H](CN(C)Cc2ccc(C(=O)O)cc2)[C@H](C)CN([C@H](C)CO)C(=O)c2cc(NC(=O)c3ccncc3)ccc2O1` the CPE inhibition was active: 42%. With `O=C(C[C@H]1CC[C@H](NS(=O)(=O)c2ccc(F)cc2)[C@H](CO)O1)NCc1ccc(Cl)c(Cl)c1` the CPE inhibition was inactive: -2.6%. For `CC(=O)c1cccc(NC(=O)C(=O)Nc2cccc3ccccc23)c1`, the CPE inhibition was inactive: -5.48%. For `Cc1cccc(C(=O)Nc2scc(-c3ccc(Br)cc3)c2C(=O)O)c1`, the CPE inhibition was inactive: -6.76%. For `C[C@H](CO)N1C[C@H](C)[C@@H](CN(C)CC2CCCCC2)Oc2ccc(NC(=O)C3CCCCC3)cc2C1=O`, the CPE inhibition was active: 23.2%. For `O=C(OCc1nnc(-c2ccc([N+](=O)[O-])cc2)o1)C1CCN(C(=O)c2ccc(F)cc2)CC1`, the CPE inhibition was inconclusive: 63.6%. With `CCN(CC)C(=N)/C(C#N)=N/Nc1ccccc1` the CPE inhibition was inconclusive: 41.4%. In the case of `CSc1ccc(S(=O)(=O)Nc2ccc3c(c2)OCCO3)cc1`, the CPE inhibition was inconclusive: 37.3%. In the case of `C[C@@H]1CN([C@H](C)CO)C(=O)c2cccc(NC(=O)Nc3ccccc3)c2O[C@H]1CN(C)Cc1ccc(C(=O)O)cc1`, the CPE inhibition was active: 21.7%. For `C/C=C/c1ccc([C@@H]2[C@@H](CO)N(C(=O)C3CC3)[C@H]2CN(C)C(=O)C2CC2)cc1`, the CPE inhibition was inconclusive: 8.97%. In the case of `Cc1ccc(S(=O)(=O)N2CC[C@@H]3[C@H]2c2cc(-c4cccc(C#N)c4)ccc2N(C)[C@H]3CO)cc1`, the CPE inhibition was inactive: 1.46%. For `COc1ccc2c3c(n(C)c2c1)[C@H](CO)N(C(=O)CN1CCOCC1)CC31CN(Cc2ccncc2)C1`, the CPE inhibition was active: 36.6%. In the case of `Cc1c(C)c2ccc(O)c(CN3CCCC3)c2oc1=O`, the CPE inhibition was inconclusive: 25.4%. With `CC1=C(C(=O)OC2CCCCC2)C(c2ccccc2)NC(=O)N1` (configuration not stated) the CPE inhibition was inconclusive: 42.1%. In the case of `COCC(=O)Nc1ccc2c(c1)C(=O)N(C)C[C@@H](OC)[C@@H](C)CN(C(=O)Cc1cccnc1)[C@@H](C)CO2`, the CPE inhibition was inactive: -0.934%. In the case of `O=C(Nc1nc(-c2ccccc2)cs1)c1ccc(S(=O)(=O)N2CCc3ccccc32)cc1`, the CPE inhibition was inconclusive: 52.1%. In the case of `O=S(=O)(c1ccccc1)N1C[C@H]2[C@@H](c3ccccc31)[C@@H](CO)N2Cc1ccc(F)cc1`, the CPE inhibition was inconclusive: 44.4%. For `CN1CCN(CC(=O)Nc2nc3ccccc3s2)CC1`, the CPE inhibition was inactive: 6.58%. In the case of `CCn1ccnc1C(O)(c1ccccc1)c1ccccc1`, the CPE inhibition was inconclusive: 33.7%. With `CC(=O)NCCNC(=O)c1ccc(CSc2nc3ccccc3s2)cc1` the CPE inhibition was inconclusive: 30.5%. For `C[C@H](CO)N1C[C@H](C)[C@H](CN(C)Cc2ccc(Cl)c(Cl)c2)OCCCC[C@H](C)Oc2ccc(NC(=O)Nc3ccc(C(F)(F)F)cc3)cc2C1=O`, the CPE inhibition was inactive: -4.74%. With `COc1ccc2nc(NC(=O)c3ccc([N+](=O)[O-])o3)sc2c1` the CPE inhibition was active: 21.5%. In the case of `O=C(Nc1ccc([N+](=O)[O-])cc1)c1ccc(S(=O)(=O)N2CCCC2)cc1`, the CPE inhibition was inactive: 11.7%. For `C[C@H]1CN([C@@H](C)CO)C(=O)c2cccc(NC(=O)C3CCCCC3)c2O[C@H]1CN(C)Cc1ccncc1`, the CPE inhibition was inconclusive: 20.6%. With `CCS(=O)(=O)Nc1ccc2c(c1)C(=O)N(C)[C@H]1CC[C@H](CC(=O)NCCCN3CCOCC3)O[C@@H]1CO2` the CPE inhibition was inconclusive: 23.3%. In the case of `NS(=O)(=O)c1ccc(CCNC(=O)Cc2c[nH]c3ccccc23)cc1`, the CPE inhibition was inconclusive: 56.2%. For `O=C(/C=C/c1cccc([N+](=O)[O-])c1)NCCN1C(=O)S/C(=C\c2ccc(F)cc2)C1=O`, the CPE inhibition was inconclusive: 60.9%. In the case of `O=C(CNC(=O)c1ccccc1F)Nc1ccc2c(c1)OCO2`, the CPE inhibition was inconclusive: 69.6%. With `C=CCN(c1ccccc1OC)S(=O)(=O)c1cccc(C(=O)OC2CCOC2=O)c1` (configuration not stated) the CPE inhibition was inactive: -5.68%. With `CCOC(=O)c1sc(/N=C/N(C)C)nc1C` the CPE inhibition was active: 40%. For `CN1CCN(C(=O)C[C@H]2CC[C@@H]3[C@@H](COc4ccc(NC(=O)C5CCC5)cc4C(=O)N3C)O2)CC1`, the CPE inhibition was active: 24.1%. In the case of `C[C@@H]1CCCCO[C@H](CN(C)Cc2ccccc2)[C@@H](C)CN([C@@H](C)CO)C(=O)c2cc(NC(=O)c3ccccc3)ccc2O1`, the CPE inhibition was active: 54%. In the case of `O=C(NCc1ccncc1)c1ccc(OCc2ccccc2)cc1`, the CPE inhibition was inconclusive: 21.1%. With `C[C@@H]1CN([C@@H](C)CO)C(=O)Cc2cc(NC(=O)C3CCCCC3)ccc2O[C@@H]1CN(C)S(=O)(=O)c1cn(C)cn1` the CPE inhibition was inactive: 4.68%. For `COc1ccccc1C(=O)Nc1cccc2nc(C)ccc12`, the CPE inhibition was inconclusive: 35.9%. For `COc1ccc([C@H]2CC(=O)C=C(c3ccc4ccccc4c3)C2)cc1OC`, the CPE inhibition was inactive: 7.07%. In the case of `CCn1nc(C)c(/C=N/NC(=O)Cn2cncn2)c1C`, the CPE inhibition was inconclusive: 35.8%.
